Assay results reported in US20220260566A1, “IMMUNITY MECHANISM AND THERAPEUTIC DRUG FOR GASTROINTESTINAL DISEASES” (GUANGZHOU WOMEN AND CHILDREN'S MEDICAL CENTER, priority 2018, published 2022).
At least one compound was matched to its structure with a doubt left.

Legend:
Type in all cases: in vivo, human
[1] = test system: children with colitis or IBD; assay: Children with colitis or IBD treated with methylprednisolone or anti-TNF-α antibody: colonoscopy and clinical status; settings: patients with inflammatory bowel disease; for methylprednisolone some patients only
[2] = test system: platelet aggregation (CD41 clusters) in the colonic mucosa; assay: Immunofluorescence of colonic mucosa before and after treatment: platelet aggregation (CD41 clusters); settings: children with colitis or IBD, after vs before methylprednisolone (n=5) or anti-TNF-α (n=6), FIG. 6C
Procedure: (§1) Use formalin-fixed and paraffin-embedded paraffin blocks to prepare 3 um tissue sections. After deparaffinization, blocking antibodies (PBS containing 5% normal donkey or goat serum and 0.3% Triton X-100) are incubated for 1 hour at room temperature, and washed with PBS Then incubate the primary antibody (CD39, CD41, pT71-ATF2 or pS133-CREB) overnight in a 4 C dark humidified box. Then, after washing with PBS, incubate the secondary antibodies (goat anti-mouse IgG1 combined with AF488 and goat anti-rabbit IgG combined with Cy3) for 1 hour at room temperature, and then incubate the anti-quencher containing DAPI. Then, use the Lycra automatic inverted fluorescence microscope to observe and take pictures (20×0.75), and use the Lycra X image analysis software to process the brightness, luminosity, contrast and color balance of the image to restore the image as much as possible. For each observation condition, 4-5 areas in each mucosal section were randomly selected for observation, and the CD41 aggregation (fluorescence diameter greater than 7 μm) was measured and counted using the card X image analysis software.

CD39 = assay: Immunofluorescence of colonic mucosa before and after treatment: CD39 expression; settings: children with colitis or IBD, after vs before methylprednisolone (n=5) or anti-TNF-α (n=6), FIG. 6C
Procedure: as §1

[3] = test system: CD68+ macrophages and TNF-α in the colonic mucosa; assay: Immunofluorescence of colonic mucosa before and after treatment: CD68+ macrophages, TNF-α, PDE4B; settings: children with colitis or IBD, after vs before methylprednisolone, FIG. 6C

SMILES: C[C@H]1C[C@@H]2[C@H]([C@@H](O)C[C@@]3(C)[C@H]2CC[C@]3(O)C(=O)CO)[C@@]2(C)C=CC(=O)C=C12 [methylprednisolone]
- clinical status / clinical symptoms [1]: improved
- platelet aggregation in the colonic mucosa [2]: significantly reduces
- expression of CD39 (CD39 IET) in colonic mucosa (CD39): does not change
- expression of TNF-α in colonic mucosa [3]: does not change
